Literature values, collected in US10835519B2, “Targeting metabolic adaptive responses to chemotherapy” (University of Cincinnati, priority 2012, dated 2020).
At least one structure is not confirmed: it was looked up by name or label, or the drawing left a doubt.

Test system: BCR-ABL+ myeloproliferative disease
Conditions: mice transplanted with BCR-ABL+ bone marrow cells; Mohi et al. 2004; cited from earlier work

## CO[C@H]1C[C@@H]2CC[C@@H](C)[C@@](O)(O2)C(=O)C(=O)N2CCCC[C@H]2C(=O)O[C@H]([C@H](C)C[C@@H]2CC[C@@H](O)[C@H](OC)C2)CC(=O)[C@H](C)/C=C(\C)[C@@H](O)[C@@H](OC)C(=O)[C@H](C)C[C@H](C)/C=C/C=C/C=C/1C [rapamycin]
  development of fatal myeloproliferative disease: delay the development of fatal myeloproliferative disease
